Experimental data: PubChem BioAssay AID330 (DTP/NCI, 2004)
The list is a part of this screen's results and no random one: it gathers tests that were run many times, whatever their T/C, doses with no T/C, and many T/C values between a quarter and a half above the control. Other doses and runs of a compound stand elsewhere. T/C is the treated group as % of the vehicle group. Some doses have a count of surviving animals in place of a T/C: the source holds a T/C of zero for them, seemingly a mark for toxic or unscored doses. Some doses without a T/C left all or most animals alive at the check, yet need not have been tolerated: the source hardly ever lists a survival T/C far under the control, and the zero likely stands for such cases as well. Survivors were counted at the toxicity check, usually on the fifth day, unless a day is given; later deaths do not show. Schedules are NCI's codes, read here as Q, the interval in days (D) or hours (H), X, the number of doses. Some entries hold several experiments; the values are given in rising order. Where survival is the endpoint, the PubChem record calls one and a half times the control and up active, and a quarter to a half above the control has no call in these data; cut-offs in other NCI protocols can differ. Counts like (3×) give the number of equal values in this list.

System: P388 leukemia ip, CD2F1 mice, survival T/C
Test: NCI In Vivo Anticancer Drug Screen. Data for tumor model P388 Leukemia (intraperitoneal) in CD2F1 (CDF1) mice
Conditions: T/C endpoint: median survival time, higher T/C = longer survival
[1] = dose: 6.25 mg/kg/injection, schedule: Q01DX009 (ip), vehicle: saline
[2] = dose: 12.5 mg/kg/injection, schedule: Q01DX009 (ip), vehicle: saline
[3] = dose: 50.0 mg/kg/injection, schedule: Q01DX009 (ip), vehicle: saline
[4] = dose: 100.0 mg/kg/injection, schedule: Q01DX009 (ip), vehicle: saline
[5] = dose: 200.0 mg/kg/injection, schedule: Q01DX009 (ip), vehicle: saline
[6] = dose: 200.0 mg/kg/injection, schedule: Q01DX009 (ip), vehicle: Klucel (hydroxypropylcellulose) (HPC)
[7] = dose: 50.0 mg/kg/injection, schedule: Q01DX009 (ip), vehicle: Klucel (hydroxypropylcellulose) (HPC)
[8] = dose: 50.0 mg/kg/injection, schedule: Q01DX009 (ip), vehicle: saline with Tween-80
[9] = dose: 200.0 mg/kg/injection, schedule: Q01DX009 (ip), vehicle: saline with Tween-80
[10] = dose: 400.0 mg/kg/injection, schedule: Q04DX003 (ip), vehicle: saline with Tween-80
[11] = dose: 100.0 mg/kg/injection, schedule: Q01DX009 (ip), vehicle: saline with Tween-80
[12] = dose: 200.0 mg/kg/injection, schedule: Q01DX005 (ip), vehicle: Klucel (hydroxypropylcellulose) (HPC)

What does the source list for `CN(C)CC[CH2][Sn]([CH3])([Br])[Br]`?
survivor count (dose: 1.56 mg/kg/injection, schedule: Q01DX009 (ip), vehicle: saline): 6 of 6; T/C (dose: 3.12 mg/kg/injection, schedule: Q01DX009 (ip), vehicle: saline): 100, 106, 107, 114 % of control; T/C [1]: 97, 103, 107 % of control (2×); T/C [2]: 103, 113, 120 % of control; survivor count [2]: 5 of 6; survivor count (dose: 50.0 mg/kg/injection, schedule: Q01DX009 (ip), vehicle: methylcellulose (MC)): 0 of 6; survivor count (dose: 100.0 mg/kg/injection, schedule: Q01DX009 (ip), vehicle: methylcellulose (MC)): 0 of 6; survivor count (dose: 200.0 mg/kg/injection, schedule: Q01DX009 (ip), vehicle: methylcellulose (MC)): 0 of 6

What does the source list for `CCCOC(=O)C1C2CCC(O2)C1C(=O)O` (stereo not drawn)?
survivor count (dose: 25.0 mg/kg/injection, schedule: Q01DX005 (ip), vehicle: saline): 1 of 6; survivor count (dose: 50.0 mg/kg/injection, schedule: Q01DX005 (ip), vehicle: saline): 0 of 6; survivor count (dose: 100.0 mg/kg/injection, schedule: Q01DX005 (ip), vehicle: saline): 0 of 6; survivor count (dose: 200.0 mg/kg/injection, schedule: Q01DX005 (ip), vehicle: saline): 0 of 6

How did the survivor count [1] turn out when `CCOC(=O)[C]1([Hg][CH3])N=NC(C(=O)OC)=C1C(=O)OC` (stereo not drawn) was run?
The survivor count was 6 of 6.

What about the survivor count (dose: 25.0 mg/kg/injection, schedule: Q01DX009 (ip), vehicle: saline) of the same molecule?
Its survivor count is 0 of 6.

What about the survivor count [3] of the same molecule?
Its survivor count is 0 of 6.

What about the survivor count [4] of the same molecule?
Its survivor count is 0 of 6.

And the survivor count [5]?
The survivor count was 0 of 6.

`O=C(N1CCCCCC1)N1CC1` was tested. Which survivor count [6] did it give?
The survivor count was 0 of 6.

And the survivor count (dose: 400.0 mg/kg/injection, schedule: Q01DX009 (ip), vehicle: Klucel (hydroxypropylcellulose) (HPC))?
The survivor count was 0 of 6.

How did the T/C (dose: 1.0 mg/kg/injection, schedule: Q01DX009 (ip), vehicle: water) turn out when `COc1cccc2c1C(=O)c1c(O)c3c(c(O)c1C2=O)C[C@@](O)(C(O)O)C[C@@H]3OC1CC(N)C(O)C(C)O1` (stereo partly drawn) was run?
Its T/C is 135 % of control.

What about the T/C (dose: 8.0 mg/kg/injection, schedule: Q01DX009 (ip), vehicle: water) of the same molecule?
The T/C was 135 % of control.

And the T/C (dose: 12.5 mg/kg/injection, schedule: Q04DX003 (ip), vehicle: water)?
Its T/C is 131 % of control.

What about the survivor count (dose: 16.0 mg/kg/injection, schedule: Q01DX009 (ip), vehicle: water) of the same molecule?
The survivor count was 3 of 3.

And the T/C (dose: 25.0 mg/kg/injection, schedule: Q04DX003 (ip), vehicle: water, evaluated on day 30)?
The T/C was 140 % of control.

What about the T/C (dose: 25.0 mg/kg/injection, schedule: Q04DX003 (ip), vehicle: water, evaluated on day 45) of the same molecule?
Its T/C is 127 % of control.

Which survivor count (dose: 240.0 mg/kg/injection, schedule: Q01DX005 (ip), vehicle: saline with Tween-80) does the source give for `CNc1nc2cc(OC)c(OC)cc2c(=O)[nH]1` here?
The survivor count was 3 of 6.

Which survivor count (dose: 400.0 mg/kg/injection, schedule: Q01DX001 (ip), vehicle: Klucel (hydroxypropylcellulose) (HPC)) does the source give for `COc1ccc(SSc2ccc(OC)n[n+]2[O-])[n+]([O-])n1` here?
The survivor count was 1 of 6.

Which survivor count (dose: 100.0 mg/kg/injection, schedule: Q01DX009 (ip), vehicle: suspension in saline) does the source give for `CCN(Cc1ccc(CN(CC)C(=O)c2c(-c3ccccc3)noc2C)cc1)C(=O)c1c(-c2ccccc2)noc1C` here?
The survivor count was 6 of 6.

`CN(CCOS(C)(=O)=O)CCOS(C)(=O)=O` was tested. Which T/C (dose: 0.99 mg/kg/injection, schedule: Q04DX003 (ip), vehicle: saline) did it give?
The T/C was 131 % of control.

What about the survivor count (dose: 1.5 mg/kg/injection, schedule: Q04DX003 (ip), vehicle: saline) of the same molecule?
The survivor count was 6 of 6.

What about the survivor count (dose: 2.25 mg/kg/injection, schedule: Q04DX003 (ip), vehicle: saline) of the same molecule?
Its survivor count is 6 of 6.

Which results are given for `CN(C/C=C/CN(C)N=O)N=O`?
T/C [7]: 144 % of control; survivor count (dose: 100.0 mg/kg/injection, schedule: Q01DX009 (ip), vehicle: Klucel (hydroxypropylcellulose) (HPC)): 6 of 6; survivor count [6]: 2 of 6

`[Cl][Pd]([Cl])([Cl])[Cl]` was tested. Which survivor count [4] did it give?
The survivor count was 4 of 6.

And the survivor count [5]?
The survivor count was 4 of 6.

With `C=C1C(=O)OC2C1C(OC(=O)C(C)CC)CC1(O)COC3(O)C1C2C1(C)OC13` (stereo not drawn) as the molecule, how does the survivor count (dose: 50.0 mg/kg/injection, schedule: Q01DX001 (ip), vehicle: Klucel (hydroxypropylcellulose) (HPC)) read?
The survivor count was 1 of 6.

What about the survivor count (dose: 100.0 mg/kg/injection, schedule: Q01DX001 (ip), vehicle: Klucel (hydroxypropylcellulose) (HPC)) of the same molecule?
Its survivor count is 0 of 6.

Which survivor count [6] does the source give for `Clc1cc(Cl)c(Cl)nn1` here?
Its survivor count is 0 of 6.

For `O=P(OCc1ccccc1)(N(CCCl)CCCl)N1CCN(P(=O)(OCc2ccccc2)N(CCCl)CCCl)CC1` (stereo not drawn), which T/C [8] is on record?
Its T/C is 141 % of control.

What about the survivor count [9] of the same molecule?
The survivor count was 1 of 6.

And the T/C (dose: 200.0 mg/kg/injection, schedule: Q04DX003 (ip), vehicle: saline with Tween-80)?
The T/C was 145 % of control.

And the survivor count [10]?
The survivor count was 6 of 6.

What does the source list for `Clc1ccc(CBr)c2ccccc12`?
survivor count [8]: 6 of 6; survivor count [11]: 0 of 6; survivor count [9]: 0 of 6

`NCCc1ccc(OCc2ccccc2)c(OCc2ccccc2)c1` was tested. Which survivor count [3] did it give?
Its survivor count is 0 of 6.

What about the survivor count [4] of the same molecule?
Its survivor count is 0 of 6.

For `CCN(CC)CC.[CH-]1CCCCC1.[CH-]1CCCCC1.[CH-]1CCCCC1.[Cl-].[I-].[Sn+4]`, which survivor count (dose: 12.0 mg/kg/injection, schedule: Q01DX005 (ip), vehicle: Klucel (hydroxypropylcellulose) (HPC)) is on record?
Its survivor count is 2 of 6.

What about the survivor count (dose: 25.0 mg/kg/injection, schedule: Q01DX005 (ip), vehicle: Klucel (hydroxypropylcellulose) (HPC)) of the same molecule?
The survivor count was 0 of 6.

And the survivor count (dose: 50.0 mg/kg/injection, schedule: Q01DX005 (ip), vehicle: Klucel (hydroxypropylcellulose) (HPC))?
The survivor count was 0 of 6.

And the survivor count (dose: 100.0 mg/kg/injection, schedule: Q01DX005 (ip), vehicle: Klucel (hydroxypropylcellulose) (HPC))?
Its survivor count is 0 of 6.

What about the survivor count [12] of the same molecule?
Its survivor count is 0 of 6.

How did the survivor count [9] turn out when `Oc1cc(CN2CCCC2)c(O)cc1CN1CCCC1` was run?
Its survivor count is 0 of 6 and 1 of 6.

Which T/C [4] does the source give for `COC1C(/C=C/C(C)=O)OC2OC(C)(C)OC21` (stereo not drawn) here?
The T/C was 125 and 132 % of control.

And the survivor count [5]?
Its survivor count is 2 of 6.

How did the survivor count [3] turn out when `CCN(CCCl)c1ccccc1` was run?
The survivor count was 6 of 6.

And the survivor count [4]?
The survivor count was 0 of 6.

What about the survivor count [5] of the same molecule?
Its survivor count is 0 of 6.

Which survivor count [10] does the source give for `CCc1nnc2c(C)c(C)nc(C)n12` here?
The survivor count was 3 of 6.

For `C[C@]12CC[C@@H]3c4ccc(O)cc4CC[C@H]3[C@@H]1CC[C@@H]2NCCCCCCO`, which survivor count [12] is on record?
The survivor count was 6 of 6.

`CN=C1c2ccccc2C(=O)c2c1c(O)n(-c1ccccc1)c2O` was tested. Which survivor count [12] did it give?
Its survivor count is 5 of 6.

How did the survivor count (dose: 50.0 mg/kg/injection, schedule: Q01DX008 (ip), vehicle: Klucel (hydroxypropylcellulose) (HPC)) turn out when `O=C1C=CC2(CC=CCC2)CC1` (stereo not drawn) was run?
Its survivor count is 4 of 6.

What about the survivor count [7] of the same molecule?
Its survivor count is 5 of 6.

Which results are given for `COC(=O)c1cc2c(s1)CCC/C(Cl)=C(/C=O)C2`?
survivor count [11]: 2 of 6; survivor count [5]: 0 of 6

Which T/C (dose: 50.0 mg/kg/injection, schedule: Q01DX009 (ip), vehicle: other) does the source give for `NNS(=O)(=O)c1ccc2ccccc2c1` here?
The T/C was 126 % of control.

And the survivor count (dose: 400.0 mg/kg/injection, schedule: Q01DX009 (ip), vehicle: other)?
Its survivor count is 0 of 3.

How did the survivor count (dose: 100.0 mg/kg/injection, schedule: Q04DX002 (ip), vehicle: Klucel (hydroxypropylcellulose) (HPC)) turn out when `BrCC1(c2ccccc2)OCCO1` was run?
Its survivor count is 0 of 6.

And the survivor count (dose: 200.0 mg/kg/injection, schedule: Q04DX002 (ip), vehicle: Klucel (hydroxypropylcellulose) (HPC))?
The survivor count was 0 of 6.

And the survivor count (dose: 400.0 mg/kg/injection, schedule: Q04DX002 (ip), vehicle: Klucel (hydroxypropylcellulose) (HPC))?
The survivor count was 0 of 6.

How did the survivor count [4] turn out when `CN(C)C(=S)S(C)(=O)=O` was run?
The survivor count was 0 of 6.

And the survivor count [5]?
Its survivor count is 0 of 6.

How did the survivor count [11] turn out when `CCCCCCCCCCCCCCCCN1C(=O)/C(=C\c2ccc(O)cc2)SC1=Nc1ccccc1` was run?
Its survivor count is 6 of 6.

Which results are given for `c1cc(-c2cc3cc(C4=NCCN4)ccc3s2)ccc1C1=NCCN1`?
survivor count (dose: 100.0 mg/kg/injection, schedule: Q04DX003 (ip), vehicle: saline): 2 of 6; survivor count (dose: 200.0 mg/kg/injection, schedule: Q04DX003 (ip), vehicle: saline): 1 of 6; survivor count (dose: 400.0 mg/kg/injection, schedule: Q04DX003 (ip), vehicle: saline): 0 of 6

For `O=C1N(CC2CO2)CCN1CC1CO1` (stereo not drawn), which T/C [3] is on record?
Its T/C is 130 and 144 % of control.
